These are yes or no findings as the source states them, for the method shown. Binding seen in cells or lysates may run through a third protein. These calls come from enrichment with a bait or labelling near it, and not all partners need be listed.

Amino acid sequences for entries named in this document (tags omitted). A change or cut given only in a name is not applied to a line headed by its entry. Residues count along the entry.
UniProt P16035, residues 27-220: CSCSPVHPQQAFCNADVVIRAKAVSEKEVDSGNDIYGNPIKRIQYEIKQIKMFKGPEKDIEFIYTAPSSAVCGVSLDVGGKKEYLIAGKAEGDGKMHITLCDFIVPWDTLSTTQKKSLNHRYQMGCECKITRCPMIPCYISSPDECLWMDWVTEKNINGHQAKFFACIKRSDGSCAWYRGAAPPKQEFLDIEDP
UniProt Q9BZP6, residues 22-476: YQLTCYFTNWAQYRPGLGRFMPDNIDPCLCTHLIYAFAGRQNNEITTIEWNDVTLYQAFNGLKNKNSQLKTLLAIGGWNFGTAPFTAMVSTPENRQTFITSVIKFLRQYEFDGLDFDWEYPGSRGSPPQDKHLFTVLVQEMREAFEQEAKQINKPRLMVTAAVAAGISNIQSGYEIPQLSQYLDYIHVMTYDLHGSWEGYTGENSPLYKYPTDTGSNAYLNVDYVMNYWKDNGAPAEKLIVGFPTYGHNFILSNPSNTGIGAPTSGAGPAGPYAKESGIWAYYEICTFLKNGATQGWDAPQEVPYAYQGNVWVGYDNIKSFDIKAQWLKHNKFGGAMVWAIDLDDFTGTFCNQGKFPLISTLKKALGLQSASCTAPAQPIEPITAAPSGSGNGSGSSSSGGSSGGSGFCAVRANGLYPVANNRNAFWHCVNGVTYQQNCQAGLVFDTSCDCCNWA
UniProt Q14766, residues 24-1721: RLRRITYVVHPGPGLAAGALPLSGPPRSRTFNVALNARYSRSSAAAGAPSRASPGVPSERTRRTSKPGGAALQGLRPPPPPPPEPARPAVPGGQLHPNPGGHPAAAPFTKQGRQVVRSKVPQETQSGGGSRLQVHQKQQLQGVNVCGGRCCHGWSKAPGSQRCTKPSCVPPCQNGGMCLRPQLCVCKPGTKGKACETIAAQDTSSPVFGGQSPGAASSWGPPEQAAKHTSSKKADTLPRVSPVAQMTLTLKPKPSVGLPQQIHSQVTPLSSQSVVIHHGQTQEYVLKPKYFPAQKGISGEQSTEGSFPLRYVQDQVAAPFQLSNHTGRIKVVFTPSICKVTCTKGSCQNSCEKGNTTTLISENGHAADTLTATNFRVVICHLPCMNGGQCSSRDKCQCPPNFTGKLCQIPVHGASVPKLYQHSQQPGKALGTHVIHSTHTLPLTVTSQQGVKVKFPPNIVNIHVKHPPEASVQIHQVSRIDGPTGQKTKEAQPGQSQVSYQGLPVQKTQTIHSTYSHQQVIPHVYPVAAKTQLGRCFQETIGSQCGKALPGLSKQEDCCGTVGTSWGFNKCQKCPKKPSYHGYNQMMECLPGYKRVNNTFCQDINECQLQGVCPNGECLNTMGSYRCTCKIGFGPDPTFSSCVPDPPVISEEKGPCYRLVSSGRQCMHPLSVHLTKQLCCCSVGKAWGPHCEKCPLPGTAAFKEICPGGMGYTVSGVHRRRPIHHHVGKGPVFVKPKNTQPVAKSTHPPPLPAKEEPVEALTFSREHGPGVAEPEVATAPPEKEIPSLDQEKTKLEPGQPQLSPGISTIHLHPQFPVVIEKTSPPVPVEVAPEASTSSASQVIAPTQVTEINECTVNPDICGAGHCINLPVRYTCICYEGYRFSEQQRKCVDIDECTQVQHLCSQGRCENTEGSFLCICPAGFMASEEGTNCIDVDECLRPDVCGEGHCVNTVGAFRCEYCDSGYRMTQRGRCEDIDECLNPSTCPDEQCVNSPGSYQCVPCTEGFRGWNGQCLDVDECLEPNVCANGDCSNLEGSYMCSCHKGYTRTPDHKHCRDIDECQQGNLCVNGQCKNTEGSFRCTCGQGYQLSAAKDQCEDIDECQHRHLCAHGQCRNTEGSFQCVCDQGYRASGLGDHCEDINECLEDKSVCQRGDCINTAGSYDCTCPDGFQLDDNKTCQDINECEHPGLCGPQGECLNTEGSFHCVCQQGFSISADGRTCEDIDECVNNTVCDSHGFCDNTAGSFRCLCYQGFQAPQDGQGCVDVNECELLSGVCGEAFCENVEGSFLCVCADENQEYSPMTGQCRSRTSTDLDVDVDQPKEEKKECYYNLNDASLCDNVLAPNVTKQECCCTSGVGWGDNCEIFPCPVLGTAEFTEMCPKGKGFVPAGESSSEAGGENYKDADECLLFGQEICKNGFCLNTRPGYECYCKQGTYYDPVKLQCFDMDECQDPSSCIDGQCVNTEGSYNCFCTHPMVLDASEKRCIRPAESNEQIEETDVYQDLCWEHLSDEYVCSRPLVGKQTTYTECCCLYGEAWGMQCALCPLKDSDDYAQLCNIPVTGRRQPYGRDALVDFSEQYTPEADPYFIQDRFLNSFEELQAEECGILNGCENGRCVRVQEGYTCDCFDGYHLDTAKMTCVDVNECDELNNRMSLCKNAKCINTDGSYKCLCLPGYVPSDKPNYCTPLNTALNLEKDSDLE
UniProt P01024, residues 23-1663: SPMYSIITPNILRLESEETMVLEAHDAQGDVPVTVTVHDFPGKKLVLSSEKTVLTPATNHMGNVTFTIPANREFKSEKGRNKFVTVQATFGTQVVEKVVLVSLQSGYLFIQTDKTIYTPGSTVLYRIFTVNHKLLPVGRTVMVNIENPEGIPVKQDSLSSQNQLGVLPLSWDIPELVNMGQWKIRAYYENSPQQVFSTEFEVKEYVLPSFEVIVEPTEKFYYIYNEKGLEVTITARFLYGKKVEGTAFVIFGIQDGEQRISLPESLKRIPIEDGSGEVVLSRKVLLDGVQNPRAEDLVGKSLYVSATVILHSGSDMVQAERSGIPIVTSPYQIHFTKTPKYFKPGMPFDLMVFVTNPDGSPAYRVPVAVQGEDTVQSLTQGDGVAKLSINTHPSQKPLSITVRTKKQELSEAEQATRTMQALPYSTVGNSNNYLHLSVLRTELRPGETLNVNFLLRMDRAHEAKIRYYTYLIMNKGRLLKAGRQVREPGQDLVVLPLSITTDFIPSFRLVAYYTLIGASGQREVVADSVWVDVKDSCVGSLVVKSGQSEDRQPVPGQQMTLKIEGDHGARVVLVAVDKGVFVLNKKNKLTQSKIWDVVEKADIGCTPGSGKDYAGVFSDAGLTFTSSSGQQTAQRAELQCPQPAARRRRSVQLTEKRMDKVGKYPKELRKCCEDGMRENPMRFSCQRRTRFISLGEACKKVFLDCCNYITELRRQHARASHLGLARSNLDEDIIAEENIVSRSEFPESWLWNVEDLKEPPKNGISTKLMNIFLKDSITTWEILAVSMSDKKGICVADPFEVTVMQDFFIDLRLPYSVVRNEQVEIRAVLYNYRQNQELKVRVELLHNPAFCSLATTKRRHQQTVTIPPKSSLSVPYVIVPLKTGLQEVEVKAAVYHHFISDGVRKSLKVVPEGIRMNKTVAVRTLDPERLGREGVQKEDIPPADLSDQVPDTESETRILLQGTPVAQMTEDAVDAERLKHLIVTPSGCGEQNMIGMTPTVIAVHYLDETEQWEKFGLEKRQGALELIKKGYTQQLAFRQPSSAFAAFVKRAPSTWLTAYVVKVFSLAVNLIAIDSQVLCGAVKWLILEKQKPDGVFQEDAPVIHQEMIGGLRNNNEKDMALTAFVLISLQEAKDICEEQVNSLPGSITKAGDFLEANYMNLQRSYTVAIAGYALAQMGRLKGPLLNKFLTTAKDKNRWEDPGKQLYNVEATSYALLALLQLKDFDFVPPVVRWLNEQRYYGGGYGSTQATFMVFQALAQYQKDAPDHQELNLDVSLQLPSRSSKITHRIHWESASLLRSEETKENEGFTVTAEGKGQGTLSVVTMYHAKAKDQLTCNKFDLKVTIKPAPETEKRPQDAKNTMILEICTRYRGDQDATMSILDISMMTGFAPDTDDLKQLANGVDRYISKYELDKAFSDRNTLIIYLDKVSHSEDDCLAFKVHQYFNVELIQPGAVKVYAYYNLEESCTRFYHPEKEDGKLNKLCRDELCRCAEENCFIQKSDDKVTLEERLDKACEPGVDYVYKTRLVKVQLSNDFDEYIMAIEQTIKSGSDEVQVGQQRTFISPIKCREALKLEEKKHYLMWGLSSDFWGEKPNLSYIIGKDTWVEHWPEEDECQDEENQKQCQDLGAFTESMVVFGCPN
UniProt P03956: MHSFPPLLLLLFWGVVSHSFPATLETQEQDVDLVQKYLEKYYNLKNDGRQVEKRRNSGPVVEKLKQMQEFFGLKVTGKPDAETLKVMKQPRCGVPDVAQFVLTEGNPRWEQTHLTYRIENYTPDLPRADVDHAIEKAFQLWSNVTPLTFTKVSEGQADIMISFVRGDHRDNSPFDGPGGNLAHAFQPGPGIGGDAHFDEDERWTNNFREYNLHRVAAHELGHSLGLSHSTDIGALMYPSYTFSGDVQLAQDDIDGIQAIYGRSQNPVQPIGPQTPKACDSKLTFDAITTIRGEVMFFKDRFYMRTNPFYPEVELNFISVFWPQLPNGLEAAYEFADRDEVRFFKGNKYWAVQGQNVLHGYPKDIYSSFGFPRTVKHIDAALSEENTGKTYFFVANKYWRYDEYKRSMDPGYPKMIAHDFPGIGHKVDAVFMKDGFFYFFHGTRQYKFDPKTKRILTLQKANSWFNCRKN
UniProt P08311: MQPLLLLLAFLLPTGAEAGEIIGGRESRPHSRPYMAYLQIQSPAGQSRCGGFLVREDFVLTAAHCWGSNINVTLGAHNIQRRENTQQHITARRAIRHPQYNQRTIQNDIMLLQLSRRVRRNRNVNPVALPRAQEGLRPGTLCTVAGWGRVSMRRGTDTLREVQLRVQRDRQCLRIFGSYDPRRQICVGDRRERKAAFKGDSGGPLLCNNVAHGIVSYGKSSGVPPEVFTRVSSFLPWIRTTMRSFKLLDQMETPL
UniProt P02787, residues 20-698: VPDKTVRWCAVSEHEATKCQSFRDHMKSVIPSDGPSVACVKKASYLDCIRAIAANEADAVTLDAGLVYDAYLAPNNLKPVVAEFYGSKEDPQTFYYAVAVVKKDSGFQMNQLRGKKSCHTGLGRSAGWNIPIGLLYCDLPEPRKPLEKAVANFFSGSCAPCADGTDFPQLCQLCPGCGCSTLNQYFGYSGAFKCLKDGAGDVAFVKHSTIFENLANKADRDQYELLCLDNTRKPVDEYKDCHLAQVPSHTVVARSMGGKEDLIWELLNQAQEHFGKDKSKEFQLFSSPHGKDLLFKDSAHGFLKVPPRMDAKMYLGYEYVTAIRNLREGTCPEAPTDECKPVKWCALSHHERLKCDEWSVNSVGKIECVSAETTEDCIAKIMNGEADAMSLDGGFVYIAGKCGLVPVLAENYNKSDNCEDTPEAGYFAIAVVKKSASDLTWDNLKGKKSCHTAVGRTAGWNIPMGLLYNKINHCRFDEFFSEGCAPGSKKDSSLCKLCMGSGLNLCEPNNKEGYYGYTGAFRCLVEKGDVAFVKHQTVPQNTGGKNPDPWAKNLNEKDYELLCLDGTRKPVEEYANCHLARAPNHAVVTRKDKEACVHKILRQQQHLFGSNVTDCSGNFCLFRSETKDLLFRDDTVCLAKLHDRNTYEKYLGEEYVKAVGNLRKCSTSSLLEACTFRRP
UniProt P12260: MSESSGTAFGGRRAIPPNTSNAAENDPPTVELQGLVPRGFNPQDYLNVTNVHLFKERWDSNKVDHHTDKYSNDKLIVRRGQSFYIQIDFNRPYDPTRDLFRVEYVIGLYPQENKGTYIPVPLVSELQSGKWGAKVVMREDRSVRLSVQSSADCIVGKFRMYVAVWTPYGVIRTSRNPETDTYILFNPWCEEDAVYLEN
UniProt P20959, residues 28-291: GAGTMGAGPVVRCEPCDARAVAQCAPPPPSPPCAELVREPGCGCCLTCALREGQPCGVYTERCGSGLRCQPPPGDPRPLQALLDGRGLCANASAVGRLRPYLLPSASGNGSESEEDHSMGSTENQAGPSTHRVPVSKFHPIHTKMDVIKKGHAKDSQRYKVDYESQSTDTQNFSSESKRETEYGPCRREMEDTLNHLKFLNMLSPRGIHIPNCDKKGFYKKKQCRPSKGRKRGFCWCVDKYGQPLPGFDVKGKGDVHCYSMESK

In experiment [1] the target is BioID2 fusion proteins (of TIMP2; orientation not told for the hit) (human) (UniProt P16035). The experiment is described as follows: proximity labelling; ePL with BioID2 fusions on wild-type HT1080 spheroids (3D, ultra-low binding plates); fusion-expressing cells grown in 2D; single duplicate experiment, both orientations (n=4 samples); streptavidin pulldown, LC-MS/MS.

Experiment [2] deals with TIMP2-BioID2 fusion protein (human) (UniProt P16035). Described as above.
Experiment [3] has as its target BioID2-TIMP2 fusion protein (human) (UniProt P16035). Described as above.
In experiment [4] the target is TIMP2-TurboID fusion protein (human) (UniProt P16035). Kind of experiment: proximity labelling; extracellular proximity labeling (ePL) with TurboID fusions: conditioned medium of fusion-expressing HT1080 put on wild-type HT1080 in 2D, 1uM biotin, 0.1mM ATP, 1 hour; streptavidin pulldown of lysate plus medium, LC-MS/MS; cells untreated or treated with 40nM PMA or 40ug/mL ConA.

The target of experiment [5] is recombinant TurboID fusion protein (of TIMP2; orientation not told for the serum experiment) (human) (UniProt P16035). Kind of experiment: proximity labelling; 300nM recombinant TurboID fusion protein in human serum diluted to 50% with DPBS, 1uM biotin, 0.1mM ATP, 37°C, 1h; streptavidin pulldown, LC-MS/MS; duplicate; only the target purified.
Experiment [6] deals with TurboID-TIMP2 fusion protein (human) (UniProt P16035). The experiment is described as follows: proximity labelling; extracellular proximity labeling (ePL) with TurboID fusions: conditioned medium of fusion-expressing HT1080 put on wild-type HT1080 in 2D, 1uM biotin, 0.1mM ATP, 1 hour; streptavidin pulldown of lysate plus medium, LC-MS/MS; cells untreated or treated with 40nM PMA or 40ug/mL ConA.

Take CHIA (from UniProt Q9BZP6 22-476): in experiment [1], the binding result was “binds”. Consider LTBP1 (from UniProt Q14766 24-1721), for which the binding result in experiment [2] and in experiment [3] was “binds” throughout. For the molecule “C3 (found in HT1080 spheroid cultures) (from UniProt P01024 23-1663)”, the binding entry in experiment [1] is “binds”.

In the case of “Matrix metalloproteinase 1 (MMP1) (from UniProt P03956) (enzyme)”, the binding result in experiment [4] was “binds”.

Consider “Cathepsin G (CTSG) (from UniProt P08311) (enzyme)”, for which the binding entry in experiment [5] was “binds”. Regarding TF (from UniProt P02787 20-698), the binding result in experiment [1] is recorded as “binds”. Turning to “F13A1 (Coagulation Factor XIII A Chain), found in HT1080 cultures (from UniProt P12260)”, the binding entry in experiment [4] and in experiment [6] was “binds” throughout. For the molecule “IGFBP3 (bovine) (from UniProt P20959 28-291)”, in experiment [6], the binding entry is listed as “binds”. For “C3 (bovine) (from UniProt Q2UVX4 23-1661)”, in experiment [6], the binding entry is recorded as “binds”.

B1: EFEMP1 (protein, UniProt Q12805 18-493)
chain: QDTEETITYTQCTDGYEWDPVRQQCKDIDECDIVPDACKGGMKCVNHYGGYLCLPKTAQIIVNNEQPQQETQPAEGTSGATTGVVAASSMATSGVLPGGGFVASAAAVAGPEMQTGRNNFVIRRNPADPQRIPSNPSHRIQCAAGYEQSEHNVCQDIDECTAGTHNCRADQVCINLRGSFACQCPPGYQKRGEQCVDIDECTIPPYCHQRCVNTPGSFYCQCSPGFQLAANNYTCVDINECDASNQCAQQCYNILGSFICQCNQGYELSSDRLNCEDIDECRTSSYLCQYQCVNEPGKFSCMCPQGYQVVRSRTCQDINECETTNECREDEMCWNYHGGFRCYPRNPCQDPYILTPENRCVCPVSNAMCRELPQSIVYKYMSIRSDRSVPSDIFQIQATTIYANTINTFRIKSGNENGEFYLRQTSPVSAMLVLVKSLSGPREHIVDLEMLTVSSIGTFRTSSVLRLTIIVGPFSF
In the case of B1, the binding entry in experiment [1] is reported as “binds”.

B2: Secreted Frizzled Related Protein 1 (SFRP1) (protein, UniProt Q8N474 32-314)
chain: SEYDYVSFQSDIGPYQSGRFYTKPPQCVDIPADLRLCHNVGYKKMVLPNLLEHETMAEVKQQASSWVPLLNKNCHAGTQVFLCSLFAPVCLDRPIYPCRWLCEAVRDSCEPVMQFFGFYWPEMLKCDKFPEGDVCIAMTPPNATEASKPQGTTVCPPCDNELKSEAIIEHLCASEFALRMKIKEVKKENGDKKIVPKKKKPLKLGPIKKKDLKKLVLYLKNGADCPCHQLDNLSHHFLIMGRKVKSQYLLTAIHKWDKKNKEFKNFMKKMKNHECPTFQSVFK
On to B2, for which, in experiment [5], the binding result is listed as “binds”.

B3: SETDB2 (protein, UniProt Q96T68 1-719)
chain: MGEKNGDAKTFWMELEDDGKVDFIFEQVQNVLQSLKQKIKDGSATNKEYIQAMILVNEATIINSSTSIKGASQKEVNAQSSDPMPVTQKEQENKSNAFPSTSCENSFPEDCTFLTTENKEILSLEDKVVDFREKDSSSNLSYQSHDCSGACLMKMPLNLKGENPLQLPIKCHFQRRHAKTNSHSSALHVSYKTPCGRSLRNVEEVFRYLLETECNFLFTDNFSFNTYVQLARNYPKQKEVVSDVDISNGVESVPISFCNEIDSRKLPQFKYRKTVWPRAYNLTNFSSMFTDSCDCSEGCIDITKCACLQLTARNAKTSPLSSDKITTGYKYKRLQRQIPTGIYECSLLCKCNRQLCQNRVVQHGPQVRLQVFKTEQKGWGVRCLDDIDRGTFVCIYSGRLLSRANTEKSYGIDENGRDENTMKNIFSKKRKLEVACSDCEVEVLPLGLETHPRTAKTEKCPPKFSNNPKELTVETKYDNISRIQYHSVIRDPESKTAIFQHNGKKMEFVSSESVTPEDNDGFKPPREHLNSKTKGAQKDSSSNHVDEFEDNLLIESDVIDITKYREETPPRSRCNQATTLDNQNIKKAIEVQIQKPQEGRSTACQRQQVFCDEELLSETKNTSSDSLTKFNKGNVFLLDATKEGNVGRFLNHSCCPNLLVQNVFVETHNRNFPLVAFFTNRYVKARTELTWDYGYEAGTVPEKEIFCQCGVNKCRKKIL
On to B3, for which the binding entry in experiment [1] is reported as “binds”.

B4: Pregnancy-Zone Protein (PZP) (protein, UniProt P20742 26-1482)
chain: TEPQYMVLVPSLLHTEAPKKGCVLLSHLNETVTVSASLESGRENRSLFTDLVAEKDLFHCVSFTLPRISASSEVAFLSIQIKGPTQDFRKRNTVLVLNTQSLVFVQTDKPMYKPGQTVRFRVVSVDENFRPRNELIPLIYLENPRRNRIAQWQSLKLEAGINQLSFPLSSEPIQGSYRVVVQTESGGRIQHPFTVEEFVLPKFEVKVQVPKIISIMDEKVNITVCGEYTYGKPVPGLATVSLCRKLSRVLNCDKQEVCEEFSQQLNSNGCITQQVHTKMLQITNTGFEMKLRVEARIREEGTDLEVTANRISEITNIVSKLKFVKVDSHFRQGIPFFAQVLLVDGKGVPIPNKLFFISVNDANYYSNATTNEQGLAQFSINTTSISVNKLFVRVFTVHPNLCFHYSWVAEDHQGAQHTANRVFSLSGSYIHLEPVAGTLPCGHTETITAHYTLNRQAMGELSELSFHYLIMAKGVIVRSGTHTLPVESGDMKGSFALSFPVESDVAPIARMFIFAILPDGEVVGDSEKFEIENCLANKVDLSFSPAQSPPASHAHLQVAAAPQSLCALRAVDQSVLLMKPEAELSVSSVYNLLTVKDLTNFPDNVDQQEEEQGHCPRPFFIHNGAIYVPLSSNEADIYSFLKGMGLKVFTNSKIRKPKSCSVIPSVSAGAVGQGYYGAGLGVVERPYVPQLGTYNVIPLNNEQSSGPVPETVRSYFPETWIWELVAVNSSGVAEVGVTVPDTITEWKAGAFCLSEDAGLGISSTASLRAFQPFFVELTMPYSVIRGEVFTLKATVLNYLPKCIRVSVQLKASPAFLASQNTKGEESYCICGNERQTLSWTVTPKTLGNVNFSVSAEAMQSLELCGNEVVEVPEIKRKDTVIKTLLVEAEGIEQEKTFSSMTCASGANVSEQLSLKLPSNVVKESARASFSVLGDILGSAMQNIQNLLQMPYGCGEQNMVLFAPNIYVLNYLNETQQLTQEIKAKAVGYLITGYQRQLNYKHQDGSYSTFGERYGRNQGNTWLTAFVLKTFAQARSYIFIDEAHITQSLTWLSQMQKDNGCFRSSGSLLNNAIKGGVEDEATLSAYVTIALLEIPLPVTNPIVRNALFCLESAWNVAKEGTHGSHVYTKALLAYAFSLLGKQNQNREILNSLDKEAVKEDNLVHWERPQRPKAPVGHLYQTQAPSAEVEMTSYVLLAYLTAQPAPTSGDLTSATNIVKWIMKQQNAQGGFSSTQDTVVALHALSRYGAATFTRTEKTAQVTVQDSQTFSTNFQVDNNNLLLLQQISLPELPGEYVITVTGERCVYLQTSMKYNILPEKEDSPFALKVQTVPQTCDGHKAHTSFQISLTISYTGNRPASNMVIVDVKMVSGFIPLKPTVKMLERSSSVSRTEVSNNHVLIYVEQVTNQTLSFSFMVLQDIPVGDLKPAIVKVYDYYETDESVVAEYIAPCSTDTEHGNV
Turning to B4, the binding result in experiment [5] is “binds”.

B5: SERPINA5 (bovine) (protein, UniProt Q9N2I2 25-404)
chain: KKIQEVPPAVTTAPPGSRDFVFDLYRALAAAAPAQNIFFSPLSITVSLAMLSLGAQSNTKAQILEGLGIGPGEGSEEELHSASQRLLRELQQPQDSLQLSLGNALFTKPRLPIQEAFLGAMRTLYLADTFPTNFEDPEGAKKKINDYVAKQTKGKIVDLIKSLDGTQVMVMVNYIFFKAKWETSFNLKSTHEQDFYVTPETVVRVPMMKQQDQFYYLLDRNLSCKVVGVPYQGNATAFFILPREGEMEQVENGLKEKTLKKWLRMPMKRRLELYLPKFSIEGSYQLEEVLPKLGIRDIFTSDADLTGISNHSSIRVSEMVHKAVVEVDESGTQAAAATGMVITFKSARLGSQRIVFNRPFLVLIVKNSKHILFLGKVTRP
Take B5: in experiment [6], the binding result is “binds”.

B6: CFH (bovine) (protein, UniProt Q28085 19-1236)
chain: EDCKEPPPRKETEILSGSWTEQTYQEGTQATYKCRPGYRTLGSIVMMCRGGKWVSLHPSRICRKKPCAHPGDTPFGSFHLAEGTQFEYGAKVVYTCDEGYQMVGEMNFRECDTNGWTNDIPICEVVKCLPVTEPENGKIFSDALEPDQEYTYGQVVQFECNSGYMLDGPKQIHCSAGGVWSAETPKCVEIFCKTPVILNGQAVLPKATYKANERVQYRCAAGFEYGQRGDTICTKSGWTPAPTCIEITCDPPRIPNGVYRPELSKYRGQDKITYECKKGFFPEIRGTDATCTRDGWVPVPRCAWKPCSYPVIKHGRLYYSYRGYFPARVNQQFVYSCDHHFVPPSQRSWDHLTCTAEGWSPEEPCLRQCIFNYLENGHTPYREEKYLQGETVRVRCYEGYSLQNDQNTMTCTESGWSPPPRCIRVKTCSKSNIRIENGFLSESTFTYPLNKQTEYKCKPGYVTADGKTSGLITCLKNGWSAQPVCIKSCDRPVFEKARVKSDGTWFRLNDRLDYECVDGYENRDGRTTGSIVCGQDGWSDKAACYERECSIPEMDPYLNAYPRKETYKVGDVLKFSCSQGRIMVGADSVQCYHFGWSPKLPTCKVKKVKSCALPPELPNGKRKEIHKEEYAHNEVVEYACNPRFLMKGSHKIQCVDGEWTALPVCIEEERTCGNIPDLDHGDVKPSVPPYHHGDSVEFSCREAFTMIGPRFITCISGEWTQPPQCIATDELRKCKGSTLFPPEGRQAHKIEYDHNTNKSYQCRGKSEHKHSICINGEWDPKVDCNEEAKIQLCPPPPQVPNACDMTTTVNYQDGEKISILCKENYLIQDAEEIVCKDGRWQSIPRCIEKIGCSQPPQIDHGTISSSSSAEERREIHEQRLYAHGTKLSYTCEEGFEISENNVIICHMGKWSSPPQCVGLPCGLPPYVQNGVVSHKKDRYQYGEEVTYDCDEGFGTDGPASIRCLGGEWSRPQDCISTNCVNLPTFEDAVLTDREKDFYRSGEQVAFKCLSYYQLDGSNTIQCIKSKWIGRPACRDVSCGNPPQVENAIIHNQKSKYQSEERARYECIGNYDLFGEMEVVCLNGTWTEPPQCKDSQGKCGPPPPIDNGDITSLLQSVYPPGMIVEYRCQAYYELRGNKNVVCRNGEWSQLPKCLEACVISEETMRKHHIQLRWKHDKKIYSKTEDTIEFMCQHGYRQLTPKHTFRATCREGKVVYPRCG
For B6, in experiment [6], the binding result is given as “binds”.

The record behind these values is PMC10836090.
